Taken from: PubChem BioAssay AID504791 (Drosophila RNAi Screening Center, 2011)
Assay: 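Genes of the fly required for silencing by miRNA, siRNA or endo-siRNA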 (primary screen). System: Drosophila S2-derived reporter cells. Knock-down reagent: long dsRNA against Drosophila genes, about 150-250 ng dsRNA per well (siRNA assay); about 80-120 ng (miRNA assay). Duration: about 5 days (siRNA assay); about 4 days (miRNA assay). Challenge: copper sulfate induction of reporters: 25 µM (siRNA assay); 200 mM stated (miRNA assay), 1-2 days before reading. Detection: 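Per-well ratio of Renilla over firefly light, expressed relative to that plate's average ratio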. Reading the numbers: siRNA reporter hit score: higher = 3 marks a strong hit with raised ratio; -3 a strong hit with lowered ratio. Hit rule: 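a well was a first-pass pick when its plate-scaled ratio rose above 1.5 (siRNA assay) or 1.6 (miRNA assay), or dropped below 0.6; a gene counted only if two separate dsRNAs agreed on retest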.
The screen tested about 23,000 reagents; below is an unselected part of those that have a named target and a result. Over the whole deposit, 199 (0.86%) are marked active. 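Plate-scaled ratios behind the calls are not deposited; printed light signals are raw; many rows marked increased or decreased are still called inactive.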 A number with no mark means an inactive call. Names joined by + are all predicted targets of the reagent. Not all columns of the deposit are shown.

| target gene | DRSC id | siRNA reporter hit score | stable siRNA reporter change | miRNA reporter change | stable assay Renilla, run 1 (luminescence) |
| --- | --- | --- | --- | --- | --- |
| asRNA:Eig63F-2 + Eip63F-1 | DRSC21446 | – | – | – | 9274 |
| Fum1 (Fumarase 1) | DRSC18344 | – | – | – | 4736 |
| Lsp1alpha (Larval serum protein 1 alpha) | DRSC20258 | – | – | – | 5880 |
| Lsp1alpha (Larval serum protein 1 alpha) | DRSC25329 | – | – | reporter ratio raised past the hit cutoff (active) | – |
| CG2839 | DRSC00544 | – | – | – | 7362 |
| CG14841 | DRSC14965 | – | – | – | 8082 |
| CG14883 | DRSC15007 | – | – | – | 7058 |
| CR33283 (pseudo) | DRSC22918 | – | – | – | 3124 |
| Ama (Amalgam) | DRSC12489 | – | – | – | 7599 |
| Art1 (Arginine methyltransferase 1) | DRSC16063 | – | – | – | 9347 |
| chic (chickadee) | DRSC03507 | – | – | – | 7194 |
| car (carnation) | DRSC20316 | – | – | – | 6970 |
| Rab26 | DRSC11837 | – | – | – | 8773 |
| Rab26 | DRSC11838 | – | – | – | 7587 |
| Rab26 | DRSC11839 | – | – | – | 6382 |
| Edc3 (Enhancer of decapping 3) | DRSC10620 | – | – | – | 6942 |
| RpS11 (Ribosomal protein S11) | DRSC07289 | – | – | – | 6092 |
| RpS11 (Ribosomal protein S11) | DRSC22700 | – | – | – | 4300 |
| Gr92a (Gustatory receptor 92a) | DRSC21631 | – | – | – | 9026 |
| ecd (ecdysoneless) | DRSC08574 | – | – | – | 12019 |
| CG13056 | DRSC09937 | – | – | – | 7130 |
| lncRNA:CR41601 (long non-coding RNA:CR41601) | DRSC22158 | – | – | – | 9019 |
| CG14635 | DRSC17945 | – | – | – | 6255 |
| CG1582 | DRSC19732 | – | – | – | 7467 |
| CG7611 | DRSC11840 | – | – | – | 3904 |
| beta4GalNAcTB (beta1,4-N-acetylgalactosaminyltransferase B) | DRSC14869 | – | – | – | 6368 |
| CG5225 | DRSC15742 | – | – | – | 6759 |
| mge (maggie) | DRSC08721 | – | – | – | 6558 |
| CG14561 | DRSC11722 | – | – | – | 7679 |
| CG7829 | DRSC16322 | – | – | – | 6004 |
| CG3592 | DRSC18315 | – | – | – | 6654 |
| AIMP3 (aaRS-interacting multifunctional protein 3) | DRSC04500 | – | – | – | 7166 |
| Pig1 (Pre-intermoult gene 1) | DRSC18698 | – | – | – | 3939 |
| CG33099 | DRSC15774 | – | – | – | 8324 |
| insv (insensitive) | DRSC00579 | – | – | – | 7695 |
| CG4009 | DRSC15536 | – | – | – | 7122 |
| GstO3 (Glutathione S transferase O3) | DRSC10710 | – | – | – | 6759 |
| CG12054 | DRSC14467 | 3 | – | – | 6088 |
| CG12054 | DRSC23137 | – | – | – | 5232 |
| CG11961 | DRSC06099 | 3 | – | – | 8179 |
| Cht5 (Chitinase 5) | DRSC16470 | – | – | – | 3372 |
| barc (barricade) | DRSC11792 | – | – | – | 9518 |
| Dlg5 (Discs large 5) | DRSC02964 | – | – | – | 5870 |
| CG11997 | DRSC14464 | – | – | – | 6742 |
| CG8939 | DRSC20127 | – | – | – | 7450 |
| Prx4 (Peroxiredoxin 4) | DRSC08668 | – | – | – | 6348 |
| galene | DRSC08640 | – | – | – | 5842 |
| galene | DRSC08641 | – | – | – | 5804 |
| CG13743 | DRSC05139 | – | – | – | 5018 |
| CG13743 | DRSC06414 | – | – | – | 4368 |
| CG13743 | DRSC22775 | – | – | – | 3899 |
| CG14397 | DRSC02381 | – | – | – | 6955 |
| lin-28 | DRSC10261 | – | – | – | 6107 |
| wdp (windpipe) | DRSC04367 | – | – | – | 13252 |
| EndoG (Endonuclease G) | DRSC07292 | – | – | – | 6082 |
| EndoG (Endonuclease G) | DRSC22746 | – | – | – | 3363 |
| COX6B (Cytochrome c oxidase subunit 6B) | DRSC19590 | – | – | – | 7043 |
| nbs | DRSC11373 | – | – | – | 5731 |
| CG9945 | DRSC07347 | – | – | – | 6472 |
| CG15029 (retired record) | DRSC19610 | – | – | – | 5562 |
| CG5790 | DRSC02896 | – | – | – | 5255 |
| Nurf-38 (Nucleosome remodeling factor - 38kD) | DRSC04629 | – | – | – | 6012 |
| mei-P26 (meiotic P26) | DRSC17735 | – | reporter ratio raised past the hit cutoff | – | 6563 |
| mei-P26 (meiotic P26) | DRSC23049 | – | – | – | 4935 |
| Dh44-R2 (Diuretic hormone 44 receptor 2) | DRSC06141 | – | – | – | 4944 |
| Dh44-R2 (Diuretic hormone 44 receptor 2) | DRSC06281 | – | – | – | 5632 |
| CG13041 | DRSC09922 | – | – | – | 7259 |
| brm (brahma) | DRSC11330 | – | – | reporter ratio lowered past the hit cutoff (active) | 4958 |
| CG33777 | DRSC08107 | – | – | – | 5276 |
| Lgr1 (Leucine-rich repeat-containing G protein-coupled receptor 1) | DRSC16675 | – | – | – | 7384 |
| Sry-delta (Serendipity delta) | DRSC16869 | – | – | – | 8656 |
| CG42269 | DRSC10670 | – | – | – | 7091 |
| CG42269 | DRSC10672 | – | – | – | 6308 |
| RpS15 (Ribosomal protein S15) | DRSC07151 | – | – | reporter ratio lowered past the hit cutoff (active) | 7468 |
| CG17625 | DRSC15249 | – | – | – | 7018 |
| CG9300 | DRSC11064 | – | – | – | 7590 |
| Ir7f (Ionotropic receptor 7f) | DRSC18012 | – | – | – | 6280 |
| Ir75c (Ionotropic receptor 75c) | DRSC10190 | – | – | – | 7883 |
| Mppe (Metallophosphoesterase) | DRSC07296 | – | – | – | 8682 |
| CG14777 | DRSC18563 | – | – | – | 5530 |
| Ptip (PAX transcription activation domain interacting protein) | DRSC10660 | – | – | – | 6510 |
| Ptip (PAX transcription activation domain interacting protein) | DRSC11048 | – | – | – | 4636 |
| CG11247 | DRSC11643 | – | – | – | 5411 |
| CG11247 | DRSC21901 | – | – | – | 8971 |

Active calls (from the list above):
| target gene | DRSC id | siRNA reporter hit score | stable siRNA reporter change | miRNA reporter change | stable assay Renilla, run 1 (luminescence) |
| --- | --- | --- | --- | --- | --- |
| Lsp1alpha (Larval serum protein 1 alpha) | DRSC25329 | – | – | reporter ratio raised past the hit cutoff (active) | – |
| brm (brahma) | DRSC11330 | – | – | reporter ratio lowered past the hit cutoff (active) | 4958 |
| RpS15 (Ribosomal protein S15) | DRSC07151 | – | – | reporter ratio lowered past the hit cutoff (active) | 7468 |
